Results: patent EP0237138A1, “Heterocyclic compounds, their preparation and, pharmaceutical compositions containing them” (YAMANOUCHI PHARMACEUTICAL CO. LTD., priority 1986, dated 1987)
At least one read-out could not be matched to a standard name with certainty.

Tested on: Platelet aggregation in PRP
Test: Platelet aggregation-inhibitory activity (arachidonate-induced aggregation in platelet-rich plasma, Born's method)
Settings: aggregation induced by arachidonate

| SMILES | Platelet Aggregation Inhibition (200 (μM)) [%] | Platelet Aggregation Inhibition (400 (μM)) [%] |
| --- | --- | --- |
| COc1cccc2c1CCCC2=C1SC(=S)N(CC(=O)O)C1=O [Example 11, 5-(5-methoxy-1,2,3,4-tetrahydro-1-naphthylidene)-4-oxo-2-thioxo-3-thiazolidine-acetic acid] | 17 | 56 |
| O=C1NC(=S)SC1=C1CCCS(=O)(=O)c2ccccc21 [Example 49, 2,3,4,5-tetrahydro-5-(4-oxo-2-thioxo-5-thiazolidinylidene)-1-benzothiepine 1,1-dioxide] | 57 | 69 |
| O=C1NC(=S)SC1=C1C(=O)Nc2ccc(Cl)cc21 [Example 66, 5-chloro-3-(4-oxo-2-thioxo-5-thiazolidinylidene)-2-indolinone] | 17 | 96 |
| O=C1NC(=S)SC1=C1C(=O)Nc2ccc(Br)cc21 [Example 67, 5-bromo-3-(4-oxo-2-thioxo-5-thiazolidinylidene)-2-indolinone] | 9 | 95 |
